Reference: publication PMC10431718

The chains behind the UniProt entries cited, without tags or fusion partners.
UniProt P11142: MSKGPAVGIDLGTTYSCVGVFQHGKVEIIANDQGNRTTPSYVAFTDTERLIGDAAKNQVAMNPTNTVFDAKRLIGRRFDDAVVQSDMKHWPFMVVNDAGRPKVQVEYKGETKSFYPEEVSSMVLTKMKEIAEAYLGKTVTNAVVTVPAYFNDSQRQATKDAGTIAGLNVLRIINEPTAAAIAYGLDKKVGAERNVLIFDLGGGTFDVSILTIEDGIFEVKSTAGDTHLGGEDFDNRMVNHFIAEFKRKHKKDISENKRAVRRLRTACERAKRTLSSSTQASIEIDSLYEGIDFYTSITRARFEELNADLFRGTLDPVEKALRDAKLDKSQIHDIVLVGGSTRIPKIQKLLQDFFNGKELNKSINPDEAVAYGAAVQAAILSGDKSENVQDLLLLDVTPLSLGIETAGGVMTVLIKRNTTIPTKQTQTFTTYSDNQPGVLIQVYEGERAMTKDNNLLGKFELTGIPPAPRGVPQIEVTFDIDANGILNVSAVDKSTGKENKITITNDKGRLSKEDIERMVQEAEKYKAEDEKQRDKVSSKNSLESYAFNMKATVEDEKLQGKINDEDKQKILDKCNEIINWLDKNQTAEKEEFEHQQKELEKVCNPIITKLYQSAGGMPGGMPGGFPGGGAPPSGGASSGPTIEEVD
UniProt Q00610: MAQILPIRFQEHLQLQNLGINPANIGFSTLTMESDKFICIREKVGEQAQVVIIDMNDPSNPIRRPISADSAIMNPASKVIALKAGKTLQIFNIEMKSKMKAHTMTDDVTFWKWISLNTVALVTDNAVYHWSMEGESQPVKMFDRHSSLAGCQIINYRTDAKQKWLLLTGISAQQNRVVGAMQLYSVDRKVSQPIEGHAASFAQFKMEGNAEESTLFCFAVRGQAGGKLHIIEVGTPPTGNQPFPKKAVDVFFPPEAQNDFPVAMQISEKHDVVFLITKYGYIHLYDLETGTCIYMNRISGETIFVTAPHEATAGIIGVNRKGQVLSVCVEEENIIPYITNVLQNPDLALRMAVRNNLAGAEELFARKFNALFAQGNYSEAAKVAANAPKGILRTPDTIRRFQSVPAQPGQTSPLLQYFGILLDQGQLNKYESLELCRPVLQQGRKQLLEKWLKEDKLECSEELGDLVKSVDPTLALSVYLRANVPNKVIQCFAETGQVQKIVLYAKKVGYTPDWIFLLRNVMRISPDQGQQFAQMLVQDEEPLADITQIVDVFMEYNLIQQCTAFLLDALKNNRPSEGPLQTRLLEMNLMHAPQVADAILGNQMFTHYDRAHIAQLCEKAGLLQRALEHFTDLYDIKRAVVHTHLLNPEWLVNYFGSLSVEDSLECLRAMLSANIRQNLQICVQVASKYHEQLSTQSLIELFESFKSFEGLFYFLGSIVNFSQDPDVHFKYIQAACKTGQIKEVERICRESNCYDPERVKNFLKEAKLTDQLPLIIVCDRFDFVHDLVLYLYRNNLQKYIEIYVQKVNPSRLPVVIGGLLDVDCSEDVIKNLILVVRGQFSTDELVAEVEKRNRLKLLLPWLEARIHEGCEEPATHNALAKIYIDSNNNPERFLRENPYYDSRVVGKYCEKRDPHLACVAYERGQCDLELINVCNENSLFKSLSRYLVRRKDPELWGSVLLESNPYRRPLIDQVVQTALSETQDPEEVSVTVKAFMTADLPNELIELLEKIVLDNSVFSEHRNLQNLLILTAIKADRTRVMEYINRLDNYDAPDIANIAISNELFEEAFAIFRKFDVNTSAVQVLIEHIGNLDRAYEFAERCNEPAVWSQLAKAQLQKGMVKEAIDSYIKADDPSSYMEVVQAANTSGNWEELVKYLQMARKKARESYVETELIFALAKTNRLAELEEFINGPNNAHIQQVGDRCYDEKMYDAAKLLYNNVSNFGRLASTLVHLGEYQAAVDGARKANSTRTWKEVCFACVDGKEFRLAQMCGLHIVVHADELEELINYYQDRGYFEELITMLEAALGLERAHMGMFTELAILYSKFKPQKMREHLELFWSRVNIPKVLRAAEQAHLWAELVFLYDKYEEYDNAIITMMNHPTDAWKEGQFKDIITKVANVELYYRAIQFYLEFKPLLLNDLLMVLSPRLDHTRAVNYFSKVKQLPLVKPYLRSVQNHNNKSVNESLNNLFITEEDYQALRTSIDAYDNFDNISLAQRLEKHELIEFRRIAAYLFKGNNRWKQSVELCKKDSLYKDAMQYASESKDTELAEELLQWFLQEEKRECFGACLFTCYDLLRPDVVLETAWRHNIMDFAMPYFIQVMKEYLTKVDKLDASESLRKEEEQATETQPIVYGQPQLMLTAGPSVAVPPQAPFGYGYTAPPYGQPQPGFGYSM
UniProt O00410: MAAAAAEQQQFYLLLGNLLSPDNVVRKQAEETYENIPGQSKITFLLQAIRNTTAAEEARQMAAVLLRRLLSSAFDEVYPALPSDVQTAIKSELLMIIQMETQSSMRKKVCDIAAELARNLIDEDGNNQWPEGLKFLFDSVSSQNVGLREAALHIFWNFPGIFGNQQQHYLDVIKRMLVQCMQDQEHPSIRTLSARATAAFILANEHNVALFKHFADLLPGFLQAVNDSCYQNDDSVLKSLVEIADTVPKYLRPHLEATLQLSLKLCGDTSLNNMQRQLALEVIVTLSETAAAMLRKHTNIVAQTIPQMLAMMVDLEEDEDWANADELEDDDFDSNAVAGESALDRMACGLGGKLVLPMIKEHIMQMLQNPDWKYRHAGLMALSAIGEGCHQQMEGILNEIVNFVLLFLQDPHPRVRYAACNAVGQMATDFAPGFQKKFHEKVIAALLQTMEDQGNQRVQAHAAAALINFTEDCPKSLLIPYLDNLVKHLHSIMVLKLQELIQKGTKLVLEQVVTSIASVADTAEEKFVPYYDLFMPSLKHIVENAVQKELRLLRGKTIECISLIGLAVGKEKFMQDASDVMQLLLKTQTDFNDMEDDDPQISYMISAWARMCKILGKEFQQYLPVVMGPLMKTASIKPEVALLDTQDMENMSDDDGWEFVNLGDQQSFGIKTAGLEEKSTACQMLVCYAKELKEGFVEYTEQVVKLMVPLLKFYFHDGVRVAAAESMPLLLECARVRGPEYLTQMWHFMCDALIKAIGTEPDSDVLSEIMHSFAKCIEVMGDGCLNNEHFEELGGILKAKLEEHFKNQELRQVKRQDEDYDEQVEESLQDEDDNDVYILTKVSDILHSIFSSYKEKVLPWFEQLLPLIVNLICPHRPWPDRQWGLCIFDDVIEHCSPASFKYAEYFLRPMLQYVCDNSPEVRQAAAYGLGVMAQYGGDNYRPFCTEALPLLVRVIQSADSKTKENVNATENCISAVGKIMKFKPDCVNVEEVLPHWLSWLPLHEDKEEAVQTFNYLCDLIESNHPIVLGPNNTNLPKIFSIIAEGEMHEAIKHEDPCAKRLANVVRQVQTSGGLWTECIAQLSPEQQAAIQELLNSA
UniProt Q14974: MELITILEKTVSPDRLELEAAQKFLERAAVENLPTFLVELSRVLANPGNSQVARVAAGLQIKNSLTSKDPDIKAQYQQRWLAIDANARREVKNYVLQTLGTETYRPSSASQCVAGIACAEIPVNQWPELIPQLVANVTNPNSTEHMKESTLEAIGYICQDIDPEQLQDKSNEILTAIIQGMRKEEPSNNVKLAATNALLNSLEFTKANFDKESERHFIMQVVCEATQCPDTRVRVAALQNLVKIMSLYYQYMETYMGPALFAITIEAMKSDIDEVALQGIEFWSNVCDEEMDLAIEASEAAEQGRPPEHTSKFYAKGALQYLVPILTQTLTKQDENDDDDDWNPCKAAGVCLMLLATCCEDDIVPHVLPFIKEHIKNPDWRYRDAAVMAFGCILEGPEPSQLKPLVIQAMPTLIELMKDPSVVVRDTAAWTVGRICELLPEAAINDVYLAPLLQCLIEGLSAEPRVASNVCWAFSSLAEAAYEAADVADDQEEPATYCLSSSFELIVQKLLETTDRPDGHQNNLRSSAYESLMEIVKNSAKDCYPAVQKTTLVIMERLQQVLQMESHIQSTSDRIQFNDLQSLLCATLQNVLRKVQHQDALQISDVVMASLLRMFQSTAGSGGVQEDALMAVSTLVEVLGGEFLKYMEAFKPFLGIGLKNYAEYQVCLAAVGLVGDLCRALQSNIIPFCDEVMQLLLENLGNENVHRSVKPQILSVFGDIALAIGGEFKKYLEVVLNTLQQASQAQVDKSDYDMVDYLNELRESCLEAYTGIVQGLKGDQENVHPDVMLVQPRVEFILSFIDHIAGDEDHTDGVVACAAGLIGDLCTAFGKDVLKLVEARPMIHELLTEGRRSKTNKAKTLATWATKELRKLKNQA
UniProt P35579: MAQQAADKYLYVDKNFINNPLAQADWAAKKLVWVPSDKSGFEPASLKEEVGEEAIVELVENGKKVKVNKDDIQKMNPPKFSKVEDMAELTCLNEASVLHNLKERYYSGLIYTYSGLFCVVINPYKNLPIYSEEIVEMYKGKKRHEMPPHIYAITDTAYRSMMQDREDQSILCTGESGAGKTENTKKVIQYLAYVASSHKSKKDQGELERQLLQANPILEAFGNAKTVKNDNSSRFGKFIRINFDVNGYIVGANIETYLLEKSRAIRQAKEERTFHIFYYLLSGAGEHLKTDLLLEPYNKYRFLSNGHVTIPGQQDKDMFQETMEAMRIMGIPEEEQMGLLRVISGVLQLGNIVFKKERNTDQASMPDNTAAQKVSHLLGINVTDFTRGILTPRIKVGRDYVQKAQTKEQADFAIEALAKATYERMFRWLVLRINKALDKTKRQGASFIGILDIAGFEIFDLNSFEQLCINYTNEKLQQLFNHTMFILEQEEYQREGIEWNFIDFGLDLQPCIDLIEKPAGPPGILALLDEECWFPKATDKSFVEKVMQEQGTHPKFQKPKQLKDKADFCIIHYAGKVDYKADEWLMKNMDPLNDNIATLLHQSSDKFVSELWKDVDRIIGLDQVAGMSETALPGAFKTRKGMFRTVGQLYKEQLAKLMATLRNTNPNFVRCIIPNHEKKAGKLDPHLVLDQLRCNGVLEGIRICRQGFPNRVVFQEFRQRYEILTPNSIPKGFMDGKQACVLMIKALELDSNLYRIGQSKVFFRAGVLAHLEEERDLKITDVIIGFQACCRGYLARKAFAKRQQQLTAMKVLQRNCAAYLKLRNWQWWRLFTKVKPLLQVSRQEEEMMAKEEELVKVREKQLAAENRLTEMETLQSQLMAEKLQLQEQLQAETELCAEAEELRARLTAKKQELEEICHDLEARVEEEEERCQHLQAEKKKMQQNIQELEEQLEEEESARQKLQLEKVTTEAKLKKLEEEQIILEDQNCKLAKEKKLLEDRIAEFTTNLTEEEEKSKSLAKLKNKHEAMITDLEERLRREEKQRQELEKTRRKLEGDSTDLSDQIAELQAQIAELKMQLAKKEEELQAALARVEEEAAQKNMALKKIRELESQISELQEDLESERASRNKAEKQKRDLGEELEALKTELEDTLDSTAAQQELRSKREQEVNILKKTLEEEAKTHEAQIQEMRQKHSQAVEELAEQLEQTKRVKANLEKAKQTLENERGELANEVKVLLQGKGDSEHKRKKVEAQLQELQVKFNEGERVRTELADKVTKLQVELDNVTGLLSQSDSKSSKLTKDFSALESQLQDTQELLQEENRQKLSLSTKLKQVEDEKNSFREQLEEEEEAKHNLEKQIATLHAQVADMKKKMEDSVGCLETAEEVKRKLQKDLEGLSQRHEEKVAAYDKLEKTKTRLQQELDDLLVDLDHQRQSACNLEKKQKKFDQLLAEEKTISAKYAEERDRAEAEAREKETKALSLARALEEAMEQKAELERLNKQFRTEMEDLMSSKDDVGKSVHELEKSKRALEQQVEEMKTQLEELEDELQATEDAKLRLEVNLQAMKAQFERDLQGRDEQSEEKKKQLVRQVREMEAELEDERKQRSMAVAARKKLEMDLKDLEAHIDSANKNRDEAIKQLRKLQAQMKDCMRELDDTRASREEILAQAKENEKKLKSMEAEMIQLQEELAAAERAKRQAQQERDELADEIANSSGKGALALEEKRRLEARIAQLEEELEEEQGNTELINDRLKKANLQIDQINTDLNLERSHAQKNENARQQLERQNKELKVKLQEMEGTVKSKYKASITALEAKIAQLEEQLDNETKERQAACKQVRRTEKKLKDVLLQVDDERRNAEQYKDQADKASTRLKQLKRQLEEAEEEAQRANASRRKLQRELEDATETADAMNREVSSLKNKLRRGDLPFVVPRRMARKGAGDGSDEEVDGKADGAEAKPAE

T1: hemagglutinin (HA)-tagged NEK1 (NIMA-related kinase 1) (human) (UniProt Q96PY6)
T1 sequence: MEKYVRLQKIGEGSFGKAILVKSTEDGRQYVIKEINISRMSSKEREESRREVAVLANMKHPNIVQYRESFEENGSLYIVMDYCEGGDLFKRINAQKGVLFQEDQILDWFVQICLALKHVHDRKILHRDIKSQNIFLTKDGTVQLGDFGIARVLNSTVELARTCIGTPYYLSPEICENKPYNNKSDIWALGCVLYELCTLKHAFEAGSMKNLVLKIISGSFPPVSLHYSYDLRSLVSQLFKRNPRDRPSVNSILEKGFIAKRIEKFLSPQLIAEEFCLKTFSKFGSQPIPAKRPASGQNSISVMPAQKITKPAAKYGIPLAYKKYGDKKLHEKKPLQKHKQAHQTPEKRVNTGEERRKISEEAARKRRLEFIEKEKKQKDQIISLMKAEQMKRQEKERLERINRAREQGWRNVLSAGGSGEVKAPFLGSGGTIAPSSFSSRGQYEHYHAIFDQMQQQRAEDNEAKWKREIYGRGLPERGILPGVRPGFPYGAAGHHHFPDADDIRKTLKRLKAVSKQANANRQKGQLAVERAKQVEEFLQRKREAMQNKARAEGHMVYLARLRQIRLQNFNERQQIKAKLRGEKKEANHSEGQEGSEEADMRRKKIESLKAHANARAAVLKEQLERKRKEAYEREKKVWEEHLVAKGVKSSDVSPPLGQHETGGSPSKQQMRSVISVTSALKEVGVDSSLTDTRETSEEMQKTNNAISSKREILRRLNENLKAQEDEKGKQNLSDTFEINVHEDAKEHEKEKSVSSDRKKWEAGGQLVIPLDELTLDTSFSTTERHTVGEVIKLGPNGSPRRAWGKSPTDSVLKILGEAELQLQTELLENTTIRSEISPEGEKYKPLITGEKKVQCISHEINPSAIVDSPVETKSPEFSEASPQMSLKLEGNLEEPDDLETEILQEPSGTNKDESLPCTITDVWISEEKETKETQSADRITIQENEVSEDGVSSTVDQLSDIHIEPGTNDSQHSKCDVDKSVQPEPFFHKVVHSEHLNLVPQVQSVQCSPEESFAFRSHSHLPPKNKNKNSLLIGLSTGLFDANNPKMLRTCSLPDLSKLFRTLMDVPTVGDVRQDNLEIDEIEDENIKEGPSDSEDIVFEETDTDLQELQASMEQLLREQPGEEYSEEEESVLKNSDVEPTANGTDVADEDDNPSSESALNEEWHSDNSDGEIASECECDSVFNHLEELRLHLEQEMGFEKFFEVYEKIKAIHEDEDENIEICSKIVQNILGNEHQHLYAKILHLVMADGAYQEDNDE

T2: hemagglutinin (HA)-tagged NEK1 (NIMA-related kinase 1) (human), Q96PY6
T2 chain: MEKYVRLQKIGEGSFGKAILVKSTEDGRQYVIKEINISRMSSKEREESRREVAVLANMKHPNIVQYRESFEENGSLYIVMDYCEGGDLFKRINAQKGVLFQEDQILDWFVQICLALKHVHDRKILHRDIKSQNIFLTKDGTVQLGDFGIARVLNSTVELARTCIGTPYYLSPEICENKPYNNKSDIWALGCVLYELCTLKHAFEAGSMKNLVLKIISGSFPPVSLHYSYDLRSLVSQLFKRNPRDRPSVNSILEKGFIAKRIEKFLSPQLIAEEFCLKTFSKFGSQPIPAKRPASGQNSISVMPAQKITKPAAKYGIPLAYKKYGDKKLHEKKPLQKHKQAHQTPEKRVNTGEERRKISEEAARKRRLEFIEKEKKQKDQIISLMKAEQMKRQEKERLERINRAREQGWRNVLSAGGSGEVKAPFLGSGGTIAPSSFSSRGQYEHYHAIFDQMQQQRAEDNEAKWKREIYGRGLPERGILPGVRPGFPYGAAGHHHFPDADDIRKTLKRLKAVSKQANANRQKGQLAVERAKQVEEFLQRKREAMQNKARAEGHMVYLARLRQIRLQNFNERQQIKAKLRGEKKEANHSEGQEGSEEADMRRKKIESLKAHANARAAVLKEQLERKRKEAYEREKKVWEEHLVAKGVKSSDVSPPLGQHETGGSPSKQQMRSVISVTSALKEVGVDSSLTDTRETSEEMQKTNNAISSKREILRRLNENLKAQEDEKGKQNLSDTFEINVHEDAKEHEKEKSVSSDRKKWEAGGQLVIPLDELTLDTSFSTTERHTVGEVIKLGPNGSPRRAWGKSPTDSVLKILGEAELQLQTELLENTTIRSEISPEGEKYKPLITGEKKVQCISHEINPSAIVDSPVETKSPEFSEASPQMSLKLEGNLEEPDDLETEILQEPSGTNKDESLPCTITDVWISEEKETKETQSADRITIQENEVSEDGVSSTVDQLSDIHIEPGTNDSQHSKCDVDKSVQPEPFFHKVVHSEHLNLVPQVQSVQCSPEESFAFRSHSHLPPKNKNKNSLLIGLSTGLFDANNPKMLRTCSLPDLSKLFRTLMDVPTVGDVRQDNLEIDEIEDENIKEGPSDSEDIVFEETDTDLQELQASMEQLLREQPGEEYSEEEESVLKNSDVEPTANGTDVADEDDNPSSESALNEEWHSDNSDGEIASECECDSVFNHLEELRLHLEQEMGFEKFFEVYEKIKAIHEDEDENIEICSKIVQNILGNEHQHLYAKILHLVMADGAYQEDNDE


Columns and labels:
[1] = molecular target: T1, hemagglutinin (HA)-tagged NEK1 (NIMA-related kinase 1) (human); assay: affinity purification with mass spectrometry; HA-NEK1 expressed in HEK293FT cells; cells cross-linked with the reversible crosslinker DSP (1 mM, 30 min, room temperature) before lysis; immunoprecipitation with anti-HA on Protein A Dynabeads, IgG control; LC-MS/MS; six independent biological replicates
[2] = molecular target: T2, hemagglutinin (HA)-tagged NEK1 …; assay: as above; settings: remark: other sources report otherwise

Molecule | binding [1] | binding [2]
HSP90AB1 (from UniProt P08238 1-724) | binds | 
HSPA1A (from UniProt P0DMV8 1-641) | binds | 
HSPA8 (from UniProt P11142 1-646) | binds | 
clathrin heavy chain 1 (CLTC) (from UniProt Q00610 1-1675) | binds | 
elongation factor 1-α (EF1a) (human (endogenous in HEK293FT)) | binds | 
importin-5 (IPO5) (from UniProt O00410 1-1097) | binds | 
importin-β1 (KPNB1), endogenous in HEK293FT cells (from UniProt Q14974 1-876) | binds | 
myosin 9 (MYH9) (from UniProt P35579 1-1960) | binds | 
α-tubulin (TUBA1B) (from UniProt P68363 1-451) | binds | 
C21ORF2, O43822 1-256 (protein) MKLTRKMVLTRAKASELHSVRKLNCWGSRLTDISICQEMPSLEVITLSVNSISTLEPVSRCQRLSELYLRRNRIPSLAELFYLKGLPRLRVLWLAENPCCGTSPHRYRMTVLRTLPRLQKLDNQAVTEEELSRALSEGEEITAAPEREGTGHGGPKLCCTLSSLSSAAETGRDPLDSEEEATSGAQDERGLKPPSRGQFPSLSARDASSSHRGRNVLTAILLLLRELDAEGLEAVQQTVGSRLQALRGEEVQEHAE |  | no binding

No constants are given. Whether binding was seen depends on the method and setting. Binding seen in cells or lysates may run through a third protein. A yes stands for co-enrichment or nearness to the bait. Other partners may have been found. For some of these results: No binding means not detected with the bait. Where a sequence is shown, tags or fusion partners need not be part of it.
